# The other results are listed elsewhere or left out. Many values rest on one well or one pass, so single values are uncertain.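 Cells were imaged in 1,536-well plates, and nuclei stained with an antibody against cleaved PARP were counted against all DNA-stained nuclei to give the apoptosis fraction. Screening doses were chosen to leave most cells alive, and resting and induced cleaved-PARP levels differ strongly between cell lines.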
# Tested on: SkMel30
# Assay: cleaved PARP positive nuclei fraction relative to DMSO control; melanoma cells; higher = more apoptosis
# Conditions: library dose: low library concentration; 72 h
row,Structure (SMILES),cleaved PARP positive nuclei fraction [%]
1,"O=C(O)[C@@H]1[O][Sb](=[O])([O][Sb]2(=[O])[O][C@H]([C@H](O)CO)[C@H](O)[C@H](C(=O)O)[O]2)[O][C@H]([C@H](O)CO)[C@@H]1O (stereo partly specified) [stibogluconate] + O=C(O)c1ccc(-c2c[nH]c3ncc(-c4ccccc4)cc23)cc1C1CCCC1 [GSK650394] (first compound 2 µM, partner dose 0.16 µM)",90.2
2,"Cn1c(=O)n(-c2ccc(C(C)(C)C#N)cc2)c2c3cc(-c4cnc5ccccc5c4)ccc3ncc21 + CCCCCCCCCCCC1=C(O)C(=O)C=C(O)C1=O [Embelin] (first compound 0.004 µM, partner dose 1.2 µM)",123
3,"CN1CCN(c2ccc3nc(-c4c(N)c5c(F)cccc5[nH]c4=O)[nH]c3c2)CC1 [Dovitinib] + NCC(=O)Nc1ccc(-n2nc(C(F)(F)F)cc2-c2ccc3c(ccc4ccccc43)c2)cc1 [OSU03012] (first compound 0.1 µM, partner dose 1 µM)",117
4,"C=C(c1ccc(C(=O)O)cc1)c1cc2c(cc1C)C(C)(C)CCC2(C)C [Bexarotene] + Cc1cc([N+](=O)[O-])ccc1NS(=O)(=O)c1cc(Cl)ccc1Cl [FH535] (first compound 2 µM, partner dose 1 µM)",207
5,"Cc1cc(Nc2cc(N3CCN(C)CC3)nc(/C=C/c3ccccc3)n2)n[nH]1 + COC(=O)c1sccc1S(=O)(=O)Nc1ccc(Nc2ccccc2)cc1OC [GSK0660] (first compound 0.04 µM, partner dose 1 µM)",69.7
6,"CC(C)C[C@H](NC(=O)[C@H](Cc1ccccc1)NC(=O)c1cnccn1)B(O)O [Bortezomib] + Cc1cc([N+](=O)[O-])ccc1NS(=O)(=O)c1cc(Cl)ccc1Cl [FH535] (first compound 0.001 µM, partner dose 1 µM)",102
7,"CC(C)C[C@H](NC(=O)[C@H](Cc1ccccc1)NC(=O)c1cnccn1)B(O)O [Bortezomib] + O=C(CCCCCCC(=O)Nc1ccccc1)NO [vorinostat] (first compound 0.001 µM, partner dose 0.08 µM)",70.8
8,"Nc1ncn([C@H]2C[C@H](O)[C@@H](CO)O2)c(=O)n1 [decitabine] + COc1ccc2c(c1)CCC1C2CCC2(C)C(NCCCCCCN3C(=O)C=CC3=O)CCC12 [U73122] (first compound 0.1 µM, partner dose 0.4 µM)",47.2

# Part of the list above, set out differently:
row	Structure (SMILES)	cleaved PARP positive nuclei fraction [%]
1	O=C(O)[C@@H]1[O][Sb](=[O])([O][Sb]2(=[O])[O][C@H]([C@H](O)CO)[C@H](O)[C@H](C(=O)O)[O]2)[O][C@H]([C@H](O)CO)[C@@H]1O (stereo partly specified) [stibogluconate] + O=C(O)c1ccc(-c2c[nH]c3ncc(-c4ccccc4)cc23)cc1C1CCCC1 [GSK650394] (first compound 2 µM, partner dose 0.16 µM)	90.2
4	C=C(c1ccc(C(=O)O)cc1)c1cc2c(cc1C)C(C)(C)CCC2(C)C [Bexarotene] + Cc1cc([N+](=O)[O-])ccc1NS(=O)(=O)c1cc(Cl)ccc1Cl [FH535] (first compound 2 µM, partner dose 1 µM)	207

# Tested on: SkMel5
# Assay: as above
# Conditions: library dose: low library concentration; 72 h
row,Structure (SMILES),cleaved PARP positive nuclei fraction [%]
1,"Nc1ncn([C@H]2C[C@H](O)[C@@H](CO)O2)c(=O)n1 [decitabine] + COc1ccc(-c2ccc3c(N4CCOCC4)nc(N4C[C@@H](C)O[C@@H](C)C4)nc3n2)cc1CO [KU0063794] (first compound 0.1 µM, partner dose 0.02 µM)",85.5
2,"CS(=O)(=O)CCNCc1ccc(-c2ccc3ncnc(Nc4ccc(OCc5cccc(F)c5)c(Cl)c4)c3c2)o1 [lapatinib] + O=S(=O)(c1ccccc1)N(CC(F)(F)F)c1ccc(C(O)(C(F)(F)F)C(F)(F)F)cc1 [T0901317] (first compound 0.8 µM, partner dose 1.4 µM)",113
3,"Nc1ccn([C@@H]2O[C@H](CO)[C@@H](O)C2(F)F)c(=O)n1 [gemcitabine] + CC1(C)NC(=O)N(c2ccc([N+](=O)[O-])c(C(F)(F)F)c2)C1=O [nilutamide] (first compound 0.0004 µM, partner dose 1 µM)",239
4,"CCCS(=O)(=O)Nc1ccc(F)c(C(=O)c2c[nH]c3ncc(Cl)cc23)c1F + O=C1NC(=O)/C(=C/c2ccc(-c3ccc(F)cc3O)o2)S1 [AS252424] (first compound 0.08 µM, partner dose 1 µM)",67.5
5,"CNC(=O)c1cc(Oc2ccc(NC(=O)Nc3ccc(Cl)c(C(F)(F)F)c3)cc2)ccn1 [sorafenib] + C[C@@H]1CCN(C(=O)CC#N)C[C@@H]1N(C)c1ncnc2[nH]ccc12 [CP690550] (first compound 0.4 µM, partner dose 1 µM)",132
6,"Cc1cc(Nc2cc(N3CCN(C)CC3)nc(/C=C/c3ccccc3)n2)n[nH]1 + CN(C)S(=O)(=O)c1ccc2c(c1)/C(=C/c1cc3c([nH]1)CCCC3)C(=O)N2 [SU6656] (first compound 0.04 µM, partner dose 0.4 µM)",150
7,"Nc1ncn([C@H]2C[C@H](O)[C@@H](CO)O2)c(=O)n1 [decitabine] + CCCCCCCCCCCC1=C(O)C(=O)C=C(O)C1=O [Embelin] (first compound 0.1 µM, partner dose 1.2 µM)",66.4
8,"Nc1nc(F)nc2c1ncn2[C@@H]1O[C@H](CO)[C@@H](O)[C@@H]1O [fludarabine] + CCCCCCCCCCCC1=C(O)C(=O)C=C(O)C1=O [Embelin] (first compound 0.2 µM, partner dose 1.2 µM)",132
9,"O=C(O)c1ccc2c(c1)nc(Nc1cccc(Cl)c1)c1ccncc12 + COc1ccc2c(c1)CCC1C2CCC2(C)C(NCCCCCCN3C(=O)C=CC3=O)CCC12 [U73122] (first compound 0.4 µM, partner dose 0.4 µM)",146
10,"Nc1ccn([C@@H]2O[C@H](CO)[C@@H](O)C2(F)F)c(=O)n1 [gemcitabine] + CO[C@@H]1[C@H](N(C)C(=O)c2ccccc2)C[C@H]2O[C@]1(C)n1c3ccccc3c3c4c(c5c6ccccc6n2c5c31)C(=O)NC4 [Midostaurin] (first compound 0.0004 µM, partner dose 0.08 µM)",89.6
11,"CN1CCN(c2ccc3nc(-c4c(N)c5c(F)cccc5[nH]c4=O)[nH]c3c2)CC1 [Dovitinib] + O=C(O)C(=O)Nc1sc2c(c1C(=O)O)CCNC2 [TCS401] (first compound 0.1 µM, partner dose 1.66667 µM)",75.4
12,"Nc1ncn([C@H]2C[C@H](O)[C@@H](CO)O2)c(=O)n1 [decitabine] + COC(=O)c1sccc1S(=O)(=O)Nc1ccc(Nc2ccccc2)cc1OC [GSK0660] (first compound 0.1 µM, partner dose 1 µM)",71
13,"Cc1cc(Nc2cc(N3CCN(C)CC3)nc(/C=C/c3ccccc3)n2)n[nH]1 + Cc1cc(N2CCOCC2)cc2[nH]c(-c3c(NC[C@@H](O)c4cccc(Cl)c4)cc[nH]c3=O)nc12 [BMS536924] (first compound 0.04 µM, partner dose 0.2 µM)",57.3
14,"Cn1c(=O)n(-c2ccc(C(C)(C)C#N)cc2)c2c3cc(-c4cnc5ccccc5c4)ccc3ncc21 + NC(=O)Nc1cc(-c2cccc(F)c2)sc1C(=O)N[C@H]1CCCNC1 [AZD7762] (first compound 0.004 µM, partner dose 0.02 µM)",151
15,"C=C(c1ccc(C(=O)O)cc1)c1cc2c(cc1C)C(C)(C)CCC2(C)C [Bexarotene] + O=C(Nc1ccccc1)c1cc([N+](=O)[O-])ccc1Cl [GW9662] (first compound 2 µM, partner dose 2 µM)",87.7
16,"CNC(=O)c1cc(Oc2ccc(NC(=O)Nc3ccc(Cl)c(C(F)(F)F)c3)cc2)ccn1 [sorafenib] + COC(=O)c1sccc1S(=O)(=O)Nc1ccc(Nc2ccccc2)cc1OC [GSK0660] (first compound 0.4 µM, partner dose 1 µM)",33
17,"CNC(=O)c1cc(Oc2ccc(NC(=O)Nc3ccc(Cl)c(C(F)(F)F)c3)cc2)ccn1 [sorafenib] + CCCCCCCCCCCC1=C(O)C(=O)C=C(O)C1=O [Embelin] (first compound 0.4 µM, partner dose 1.2 µM)",70.9
18,"CS(=O)(=O)CCNCc1ccc(-c2ccc3ncnc(Nc4ccc(OCc5cccc(F)c5)c(Cl)c4)c3c2)o1 [lapatinib] + CN(C)S(=O)(=O)c1ccc2c(c1)/C(=C/c1cc3c([nH]1)CCCC3)C(=O)N2 [SU6656] (first compound 0.8 µM, partner dose 0.4 µM)",73.7
19,"C[C@@H](Oc1cc(-c2cnn(C3CCNCC3)c2)cnc1N)c1c(Cl)ccc(F)c1Cl [Crizotinib] + CCCCCCCCCCCC1=C(O)C(=O)C=C(O)C1=O [Embelin] (first compound 0.2 µM, partner dose 1.2 µM)",69.1
20,"Nc1nc(F)nc2c1ncn2[C@@H]1O[C@H](CO)[C@@H](O)[C@@H]1O [fludarabine] + Cc1cc(N2CCOCC2)cc2[nH]c(-c3c(NC[C@@H](O)c4cccc(Cl)c4)cc[nH]c3=O)nc12 [BMS536924] (first compound 0.2 µM, partner dose 0.2 µM)",452
21,"Cc1cc(Nc2cc(N3CCN(C)CC3)nc(/C=C/c3ccccc3)n2)n[nH]1 + COc1ccc(COc2ccc(Cc3cnc(N)nc3N)cc2OC)cc1 [GW2580] (first compound 0.04 µM, partner dose 1 µM)",148
22,"CNC(=O)c1cc(Oc2ccc(NC(=O)Nc3ccc(Cl)c(C(F)(F)F)c3)cc2)ccn1 [sorafenib] + NCC(=O)Nc1ccc(-n2nc(C(F)(F)F)cc2-c2ccc3c(ccc4ccccc43)c2)cc1 [OSU03012] (first compound 0.4 µM, partner dose 1 µM)",146
23,"Cc1cc(Nc2cc(N3CCN(C)CC3)nc(/C=C/c3ccccc3)n2)n[nH]1 + OCCn1cc(-c2cnc3nnn(Cc4ccc5ncccc5c4)c3n2)cn1 [PF04217903] (first compound 0.04 µM, partner dose 1 µM)",106

# — the supplement of paper PMC4604168 (melanoma cell lines)
